Laboratory results: PubChem BioAssay AID1508597 (Cure First, 2020)
Shown is a random part of the about 2,100 reagents, under one of the conditions tested. 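Calls flag viability under 80% in either arm, not effects specific to rucaparib; the reference for percent is not stated.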 A reagent listed more than once was tested more than once; the source does not tell the runs apart. Reagent sequences are not shown. Not stated in the record: the 100% reference.

Purpose: 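Knock-downs altering ovarian cancer cell survival with or without PARP inhibitor rucaparib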 (primary screen)
Cells: human ovarian carcinoma lines grown from tumours: OCI-P5x (papillary serous) and OCI-C5x (clear cell)
Reagents: siRNA pool against human genes, 1.25 pmol siRNA per well
Timing: 72 h or 96 h, depending on the cell culture
Conditions: rucaparib 20 µM (about IC30) or vehicle, present until read-out
Rucaparib or vehicle: Vehicle
Cell line: OCI-P5x (serous)
Detection: 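Luminescent ATP-based viability assay read 72 or 96 h after transfection, depending on culture, given as normalised percent viability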
Direction: viability, normalised: higher = more viable cells remaining
Active means: 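a well counts as a hit if its normalised viability is under 80 percent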
Meaning of the calls: active = viability under 80%; inactive = viability 80% or more

gene symbol | technical replicate | viability, normalised (%) | activity call
STK4 | 1 | 63.1 | active
STK4 | 2 | 65.9 | active
STK4 | 3 | 78 | active
CHD3 | 1 | 68.6 | active
CHD3 | 2 | 74.1 | active
CHD3 | 3 | 53.3 | active
KAT2B | 1 | 59.3 | active
KAT2B | 2 | 67.2 | active
KAT2B | 3 | 74.3 | active
NSD1 | 1 | 60.3 | active
NSD1 | 2 | 77 | active
NSD1 | 3 | 83.2 | inactive

3 entries from above in another layout:
NSD1, technical replicate 1
- viability, normalised (%): 60.3
- activity call: active

NSD1, technical replicate 2
- viability, normalised (%): 77
- activity call: active

NSD1, technical replicate 3
- viability, normalised (%): 83.2
- activity call: inactive

The results go on.
gene symbol | technical replicate | viability, normalised (%) | activity call
SMYD3 | 1 | 45 | active
SMYD3 | 2 | 46 | active
SMYD3 | 3 | 61.8 | active
IPO8 | 1 | 76.7 | active
IPO8 | 2 | 83.6 | inactive
IPO8 | 3 | 84.1 | inactive
CHEK1 | 1 | 45.9 | active
CHEK1 | 1 | 37.7 | active
CHEK1 | 2 | 43.6 | active
CHEK1 | 2 | 43.8 | active
CHEK1 | 3 | 45.9 | active
CHEK1 | 3 | 58.4 | active
